Values from PubChem BioAssay AID504808 (Drosophila RNAi Screening Center, 2011).

- Screen: 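Chromatin factors that keep E2F targets switched off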 (primary screen)
- Cells: Drosophila S2 cells
- Reagents: long dsRNA against Drosophila genes
- Measured: 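Firefly luciferase driven by E2F sites, normalised to Renilla luciferase on the same minimal promoter, measured by plate reader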
- Direction: E2F firefly: higher = more E2F reporter activity; Renilla normaliser: higher = more normaliser reporter signal
- Rule for the call: 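a knock-down counted as active when the firefly/Renilla E2F signal rose above 50%, a threshold chosen arbitrarily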
In all, the deposit lists about 21,000 reagents; this is an unselected part of those that have a named target and a result. In the full data, 18 (0.084%) are marked active. 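Raw counts without plate normalisation, one of two replicates; the ratio scores behind the calls were not deposited.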 A number with no mark means an inactive call. A plus sign joins genes that one reagent is predicted to hit. Not stated in the record: the amount of reagent, the time to read-out.

gene | amplicon | E2F firefly, rep 1 | Renilla normaliser, rep 1
CG12084 | DRSC08247 | 80170 | 3204
vir-1 (virus-induced RNA 1) | DRSC02501 | 95119 | 4093
vir-1 (virus-induced RNA 1) | DRSC02863 | 89973 | 4738
CG6414 | DRSC18401 | 1.16e5 | 5010
HLH3B (Helix loop helix protein 3B) | DRSC18669 | 1.26e5 | 6144
Rnb (R and B) | DRSC16325 | 1706 | 964
CG13924 | DRSC08393 | 98156 | 4208
CG9674 | DRSC11088 | 70054 | 3519
CG9674 | DRSC11089 | 1.42e5 | 6737
CG3919 | DRSC10389 | 82240 | 3446
mor (moira) | DRSC15378 | 1.18e5 | 7891
ppk7 (pickpocket 7) | DRSC03236 | 1.68e5 | 5675
ASPP | DRSC04305 | 75472 | 3841
CG6527 | DRSC10659 | 1.05e5 | 5508
CG10864 | DRSC14273 | 1.49e5 | 7999
mxc (multi sex combs) | DRSC17819 | 1.10e5 | 4927
l(3)80Fj (lethal (3) 80Fj) | DRSC20986 | 80802 | 2988
l(3)80Fj (lethal (3) 80Fj) | DRSC20989 | 1.52e5 | 6562
CG31897 | DRSC01020 | 1.15e5 | 6408
CG6961 + CG18259 | DRSC19799 | 1.32e5 | 6494
CG6961 + CG18259 | DRSC20019 | 1.56e5 | 5053

2 of these entries, reformatted:
{"gene": "l(3)80Fj (lethal (3) 80Fj)", "amplicon": "DRSC20989", "E2F firefly, rep 1": 1.52e5, "Renilla normaliser, rep 1": 6562}
{"gene": "CG31897", "amplicon": "DRSC01020", "E2F firefly, rep 1": 1.15e5, "Renilla normaliser, rep 1": 6408}

The list goes on:
gene | amplicon | E2F firefly, rep 1 | Renilla normaliser, rep 1
Cyp6t3 (Cytochrome P450 6t3) | DRSC07388 | 1.06e5 | 4250
Srp54k (Signal recognition particle 54k) | DRSC11289 | 96457 | 4340
ND-ACP | DRSC08724 | 1.12e5 | 4288
cass (cassowary) | DRSC01850 | 85996 | 3653
Pmvk (Phosphomevalonate kinase) | DRSC02032 | 98397 | 4329
lt (light) | DRSC03759 | 99342 | 4190
CG11836 | DRSC14396 | 63978 | 2710
CG7943 | DRSC16351 | 1879 | 1008
CG12035 | DRSC08238 | 70596 | 3382
Eo (Ecdysone oxidase) | DRSC20187 | 2.04e5 | 6414
sc (scute) | DRSC18830 | 49227 | 3760
Ccdc114 (Coiled-coil domain containing protein 114) | DRSC15025 | 1.06e5 | 5941
Glg1 (Golgi complex-localized glycoprotein 1) | DRSC11815 | 74446 | 3342
Glg1 (Golgi complex-localized glycoprotein 1) | DRSC11816 | 1.21e5 | 5329
Glg1 (Golgi complex-localized glycoprotein 1) | DRSC11817 | 1.40e5 | 6775
